Measurements as given in the supplement of paper PMC4749390.
Structures can show the parent of a compound that is named as a salt. This is one part of the list. Single values are uncertain here, since repeats match poorly.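 JEG3 cells stably express tetracycline-inducible wild-type human LRH-1, a highly sumoylated nuclear receptor. SUMO-sensitive transcripts APOC3 and MUC1, increased by SUMO-deficient LRH-1 or UBC9 knockdown, were quantified by RT-qPCR relative to TBP and DMSO controls. Primary hits had robust Z-scores above +2 or below -2, before toxicity and TBP filtering.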

tested on: JEG3 expressing hLRH-1; test: APOC3 transcript change (ddCt vs TBP and DMSO), Z-score over library; higher = higher APOC3 expression; settings: 10 µM; time (hr): 24

Row | SMILES | APOC3 transcript change (Z-score)
1 | CC(=O)N[C@@H](CS)C(=O)O [acetylcysteine] | 0.409
2 | Cc1cccc(Nc2ccncc2S(=O)(=O)NC(=O)NC(C)C)c1 [torsemide] | 0.158
3 | Cc1cc(O)cc(C)c1Cl [chloroxylenol] | 0.435
4 | Oc1cccc(O)c1 [resorcinol] | 1.02
5 | CC[C@H]1OC(=O)[C@H](C)[C@@H](O[C@H]2C[C@@](C)(OC)[C@@H](O)[C@H](C)O2)[C@H](C)[C@@H](O[C@@H]2O[C@H](C)C[C@H](N(C)C)[C@H]2O)[C@](C)(O)C[C@@H](C)CN(C)[C@H](C)[C@@H](O)[C@]1(C)O [azithromycin] | 0.423
6 | CC(N)CCCC(C)(C)O (configuration not stated) [heptaminol hydrochloride] | -0.957
7 | O=C(NC(Cc1cc(O)nc2ccccc12)C(=O)O)c1ccc(Cl)cc1 (configuration not stated) [rebamipide] | -1.07
8 | CCOC(=O)CC(=O)N1CCSC1COc1ccccc1OC (configuration not stated) [moguisteine] | -1.17
9 | C1N2CN3CN1CN(C2)C3 [methenamine] | 0.569
10 | CN(C)CCCN1c2ccccc2Sc2ccccc21 [promazine hydrochloride] | 0.84
11 | CCOC(=S)SSC(=S)OCC [dixanthogen] | -0.107
12 | CC1(C)O[C@@H]2CC3C4C[C@H](F)C5=CC(=O)C=CC5(C)C4C(O)CC3(C)[C@]2(C(=O)CO)O1 (some centres not stated) [flunisolide] | 0.583
13 | CC(=O)Oc1c(C)c(C)c2c(c1C)CCC(C)(CCCC(C)CCCC(C)CCCC(C)C)O2 (stereo not drawn) [alpha-tochopheryl acetate] | -0.403
14 | N[C@@H]1[C@@H](O)[C@H](O)[C@@H](CO)O[C@H]1O [glucosamine hydrochloride] | -0.281
15 | CCC(C)CCCCC(=O)NC(CCN)C(=O)NC(C(=O)NC(CCN)C(=O)NC1CCNC(=O)C(C(C)O)NC(=O)C(CCN)NC(=O)C(CCN)NC(=O)C(CC(C)C)NC(=O)C(Cc2ccccc2)NC(=O)C(CCN)NC1=O)C(C)O (configuration not stated) [polymyxin b sulfate] | 0.0514
16 | C/C=C(/C)C(=O)O[C@@H]1[C@H](OC(C)=O)[C@@]2(CO)C(CC1(C)C)C1=CCC3[C@@]4(C)CC[C@H](O[C@@H]5O[C@H](C(=O)O)[C@@H](O[C@@H]6O[C@H](CO)[C@@H](O)[C@H](O)[C@H]6O)[C@H](O)[C@H]5O[C@@H]5O[C@H](CO)[C@@H](O)[C@H](O)[C@H]5O)[C@](C)(CO)C4CC[C@@]3(C)[C@]1(C)C[C@H]2O (stereo partly drawn) [beta-escin] | -1.13
17 | C[C@@H]1C[C@H]2[C@@H]3CCC4=CC(=O)C=C[C@]4(C)[C@@]3(Cl)[C@@H](O)C[C@]2(C)[C@@]1(OC(=O)c1ccco1)C(=O)CCl [mometasone furoate] | 0.663
18 | CN1CCN(CCCN2c3ccccc3Sc3ccc(C(F)(F)F)cc32)CC1 [Trifluoperazine dihydrochloride] | 0.98
19 | CN(C)CCOc1ccc(/C(=C(/CCCl)c2ccccc2)c2ccccc2)cc1 [toremiphene citrate] | 0.913
20 | C[C@]12CCC(=O)C=C1[C@@H]1C[C@@H]1[C@H]1[C@@H]3[C@@H]4C[C@@H]4[C@@]4(CCC(=O)O4)[C@@]3(C)CC[C@@H]12 [drospirenone] | 0.0446
21 | C[N+](C)(C)CC(O)CC(=O)O (configuration not stated) [carnitine hydrochloride] | -0.141
22 | CCCOc1ccc(C(=O)OCCN(CC)CC)cc1N [proparacaine hydrochloride] | -0.489
23 | Clc1ccc(CSC(Cn2ccnc2)c2ccc(Cl)cc2Cl)cc1 (configuration not stated) [sulconazole nitrate] | 0.0586
24 | O=C(CCCN1CC=C(n2c(O)nc3ccccc32)CC1)c1ccc(F)cc1 [droperidol] | -0.911

Row | SMILES | APOC3 transcript change (Z-score)
25 | Cc1ccc(S(=O)(=O)NCl)cc1 [chloramine-t] | -2.3
26 | CC(Oc1ccccc1)C(=O)N[C@@H]1C(=O)N2[C@@H]1SC(C)(C)[C@@H]2C(=O)O (some centres not stated) [phenethicillin potassium] | 1.42
27 | COc1cc([C@@H]2c3cc4c(cc3C(O[C@@H]3O[C@@H]5CO[C@@H](c6cccs6)OC5[C@H](O)[C@H]3O)C3COC(=O)[C@@H]32)OCO4)cc(OC)c1O (some centres not stated) [teniposide] | 4.6
28 | O=C(O)c1cccnc1Nc1cccc(C(F)(F)F)c1 [niflumic acid] | 0.0816
29 | CC(=O)NCCCCCC(=O)O [acexamic acid] | -0.273
30 | c1ccc(CC2=NCCN2)cc1 [tolazoline hydrochloride] | -1.15
31 | Nc1ccc(S(=O)(=O)Nc2nccs2)cc1 [sulfathiazole] | 0.0209
32 | CC(C)(Oc1ccc(C2CC2(Cl)Cl)cc1)C(=O)O (configuration not stated) [ciprofibrate] | -0.214
33 | Clc1ccc(C(Cn2ccnc2)OCc2ccsc2Cl)c(Cl)c1 (configuration not stated) [tioconazole] | 0.761
34 | CC[C@]1(O)C[C@H]2CN(CCc3c([nH]c4ccccc34)[C@@](C(=O)OC)(c3cc4c(cc3OC)N(C)[C@H]3[C@@](O)(C(=O)OC)[C@H](OC(C)=O)[C@]5(CC)C=CCN6CC[C@]43[C@@H]65)C2)C1 [vinblastine sulfate] | -2.09
35 | Cc1ccccc1C(OCCN(C)C)c1ccccc1 (configuration not stated) [orphenadrine citrate] | 0.924
36 | NC(=O)c1cnccn1 [pyrazinamide] | 0.101
37 | Cc1cc(C2CCCCC2)n(O)c(=O)c1 [ciclopirox olamine] | 3.56
38 | O=C1OC(c2ccc(O)cc2)(c2ccc(O)cc2)c2ccccc21 [phenolphthalein] | 0.502
39 | NS(=O)(=O)c1cc2c(cc1Cl)NCNS2(=O)=O [Hydrochlorothiazide] | 0.422
40 | O=C1c2cccc(O)c2C(=O)c2c(O)cccc21 [dantron] | 2.17
41 | OCCOCCN1CCN(C(c2ccccc2)c2ccc(Cl)cc2)CC1 (configuration not stated) [hydroxyzine pamoate] | -1.75
42 | Nc1ccc(S(N)(=O)=O)cc1 [sulfanilamide] | -0.3
43 | CN1CCCC(n2nc(Cc3ccc(Cl)cc3)c3ccccc3c2=O)CC1 (configuration not stated) [azelastine hydrochloride] | 0.414
44 | Cc1cc2nc3c(=O)[nH]c(=O)nc-3n(C[C@@H](O)[C@@H](O)[C@@H](O)COP(=O)(O)O)c2cc1C [riboflavin 5-phosphate sodium] | 0.538
45 | COC(=O)Nc1nc2cc(S(=O)c3ccccc3)ccc2[nH]1 (configuration not stated) [oxfendazole] | -0.695
46 | CN1CCOC(c2ccccc2)c2ccccc2C1 (configuration not stated) [nefopam] | 0.183
47 | NC(=O)CCCCC1CCSS1 (configuration not stated) [lipoamide] | 0.334
48 | CCC1(C)OC(=O)N(C)C1=O (configuration not stated) [paramethadione] | 0.902

Structures listed so far with an aryl methoxy group (3):
Row | SMILES | APOC3 transcript change (Z-score)
8 | CCOC(=O)CC(=O)N1CCSC1COc1ccccc1OC (configuration not stated) [moguisteine] | -1.17
27 | COc1cc([C@@H]2c3cc4c(cc3C(O[C@@H]3O[C@@H]5CO[C@@H](c6cccs6)OC5[C@H](O)[C@H]3O)C3COC(=O)[C@@H]32)OCO4)cc(OC)c1O (some centres not stated) [teniposide] | 4.6
34 | CC[C@]1(O)C[C@H]2CN(CCc3c([nH]c4ccccc34)[C@@](C(=O)OC)(c3cc4c(cc3OC)N(C)[C@H]3[C@@](O)(C(=O)OC)[C@H](OC(C)=O)[C@]5(CC)C=CCN6CC[C@]43[C@@H]65)C2)C1 [vinblastine sulfate] | -2.09

More records

Row | SMILES | APOC3 transcript change (Z-score)
49 | O=C(O)c1cccnc1 [niacin] | 0.503
50 | CCC(C)(C)C(=O)O[C@H]1C[C@@H](C)C=C2C=C[C@H](C)[C@H](CC[C@@H]3C[C@@H](O)CC(=O)O3)[C@H]21 [simvastatin] | 0.877
51 | CC#CCn1c(N2CCC[C@@H](N)C2)nc2c1c(=O)n(Cc1nc(C)c3ccccc3n1)c(=O)n2C [linagliptin] | -1.05
52 | Nc1ncnc2c1ncn2[C@@H]1O[C@H](CO)[C@@H](O)[C@H]1O [adenosine] | -0.878
53 | CN[C@@H]1[C@H](O)[C@H](NC)[C@H]2O[C@@]3(O)C(=O)C[C@@H](C)O[C@H]3O[C@@H]2[C@H]1O [spectinomycin hydrochloride] | -0.00199
54 | c1ccc2c(CC3=NCCN3)cccc2c1 [naphazoline hydrochloride] | 0.327
55 | Clc1ccc2c(c1)C(N1CCNCC1)=Nc1ccccc1O2 [Amoxapine] | 0.0327
56 | CC(=O)OCC(=O)[C@@]12OC(C)(C)O[C@@H]1C[C@H]1[C@@H]3C[C@H](F)C4=CC(=O)C=C[C@]4(C)[C@@]3(F)[C@@H](O)C[C@@]12C [fluocinonide] | 1.14
57 | CCN(CC)CC(=O)Nc1c(C)cccc1C [Lidocaine hydrochloride] | -1.26
58 | CCNC(=O)/C=C/c1cccc(Br)c1 [cinromide] | 0.641
59 | CC1CC(OC(=O)C(O)c2ccccc2)CC(C)(C)C1 (configuration not stated) [cyclandelate] | -0.281
60 | Nc1nc(O)c2nc(CNc3ccc(C(=O)N[C@@H](CCC(=O)O)C(=O)O)cc3)cnc2n1 [folic acid] | -0.181
61 | COc1ccc(-c2cc(C(F)F)nn2-c2ccc(S(N)(=O)=O)cc2)cc1F [deracoxib] | 0.188
62 | CC(C)NCC(O)c1ccc(NS(C)(=O)=O)cc1 (configuration not stated) [sotalol hydrochloride] | -0.0296
63 | CN(C)CCC(c1ccc(Cl)cc1)c1ccccn1 (configuration not stated) [chlorpheniramine maleate] | -0.17
64 | O=C1NS(=O)(=O)c2ccccc21 [saccharin] | 0.306
65 | Nc1ccc(S(=O)(=O)c2ccc(N)cc2)cc1 [dapsone] | -1.7
66 | Cc1nccnc1N1CCCCC1 [modaline sulfate] | -0.298
67 | CN(C)CCN(Cc1cccs1)c1ccccn1 [methapyrilene hydrochloride] | 0.878
68 | CCC[C@H](N[C@@H](C)C(=O)N1[C@H](C(=O)O)C[C@@H]2CCCC[C@@H]21)C(=O)OCC [perindopril erbumine] | 0.597
69 | CC(=O)NS(=O)(=O)c1ccc(N)cc1 [sulfacetamide] | -0.199
70 | O=S(=O)(OC[C@H]1O[C@@H](O[C@]2(COS(=O)(=O)[O][Al]([OH])[OH])O[C@H](OS(=O)(=O)[O][Al]([OH])[OH])[C@@H](OS(=O)(=O)[O][Al]([OH])[OH])[C@@H]2OS(=O)(=O)[O][Al]([OH])[OH])[C@H](OS(=O)(=O)[O][Al]([OH])[OH])[C@@H](OS(=O)(=O)[O][Al]([OH])[OH])[C@@H]1OS(=O)(=O)[O][Al]([OH])[OH])[O][Al]([OH])[OH] [sucralfate] | 0.402
71 | CN1CCN(C(c2ccccc2)c2ccc(Cl)cc2)CC1 (configuration not stated) [chlorcyclizine hydrochloride] | -1.19
72 | CCN(CC)CCNC(C(=O)OCCC(C)C)c1ccccc1 (configuration not stated) [camylofine dihydrochloride] | 0.0894

Structures from the list above that contain a CF3 group (2):
Row | SMILES | APOC3 transcript change (Z-score)
18 | CN1CCN(CCCN2c3ccccc3Sc3ccc(C(F)(F)F)cc32)CC1 [Trifluoperazine dihydrochloride] | 0.98
28 | O=C(O)c1cccnc1Nc1cccc(C(F)(F)F)c1 [niflumic acid] | 0.0816
